# Measurements published in PubChem BioAssay AID2810 (NMMLSC, 2010).
# The other results are listed elsewhere or left out. These are further read-outs of the screen, such as a control signal, another cell line or another target. No call is given for them.
# Experiment: modulators of CD8 T cell-vesicle binding, confirmation, cherry-picked primary hits, two concentrations (AID 2810);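 note: lower values mean blocking of vesicle binding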;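 for percent response (vesicle binding): ratio of mean FL2 vesicle stain of CD8+ cells to that row's control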
# Conditions: 2C CD8+ T cell-vesicle binding, flow cytometry; for double positive events: CD8+/vesicle+ events
# [1] = at 15.4 µM, stronger effect = lower value
SMILES,double positive events (at 7.7 µM),double positive events [1],percent response (vesicle binding) (at 7.7 µM)
O=C(On1c(-c2ccccc2)nc2ccccc2c1=O)c1ccco1,38.7%,8%,304%
Cc1cnc(C(=O)Nc2ccc(C)c(S(=O)(=O)N3CCCCC3)c2)cn1,19.5%,9.6%,86.9%
O=C(c1ccccc1)N1CCN(Cc2c[nH]c3ccccc23)CC1,17.4%,14.2%,598%
O/N=C1\CCCc2oc3c(c21)CCCC3,24.6%,7.6%,365%
COc1ccc(C(=O)NCc2c(C)nn(Cc3ccccc3)c2C)cc1S(=O)(=O)N1CCOCC1,22.1%,29.3%,626%
O=S(=O)(c1ccc(Cl)s1)N1CCC2(CC1)OCCO2,14.6%,9.6%,85%
CCOC(=O)CC(NC(=O)c1cc2cccc(OC)c2oc1=O)c1cccc([N+](=O)[O-])c1 (stereo not drawn),17.9%,17.2%,111%
O=C(COC(=O)c1ccc(Br)o1)NCc1ccc(Cl)cc1,12.2%,9.2%,378%
COc1ccc(O)c(C2=Nc3ccccc3N=C(c3cccs3)C2)c1,28.5%,7.2%,186%
CC(C)(C)c1ccc(OCC(=O)NCc2ccco2)c(Br)c1,13.7%,17.8%,196%
Cc1ccc(N2C(=O)C(Cl)=C(N3CCCCCC3)C2=O)c(C)c1,19.6%,11.4%,254%
COCCNc1nc(C)c(C(C)=O)s1,16.3%,39.4%,209%
COc1ccc(-c2cnnc(N/N=C/C(C)=C/c3ccccc3)n2)cc1,18.5%,13.9%,314%
CCCCCCC#Cc1ccc2c(c1)COc1c3ccccc3nn1-2,30.9%,24.4%,404%
CCOc1ccc2nnnn2n1,28.2%,21.2%,426%
Cc1ccc(Nc2cc(C)c(O)c(C)c2)cc1,9.9%,26.7%,120%
CN(C)CC(NC(=O)c1cccc(S(=O)(=O)Nc2ccc3c(c2)OCO3)c1)c1ccccc1 (stereo not drawn),13.2%,32.1%,124%
O=c1c2c(O)cc(O)cc2oc2ccc(O)c(O[C@@H]3O[C@H](CO)[C@@H](O)[C@H](O)[C@H]3O[C@H]3O[C@H](CO)[C@@H](O)[C@H](O)[C@H]3O)c12,13.6%,34.6%,144%
CC(C)N(CCNC(=O)c1nn(Cc2ccccc2)c(=O)c2ccccc12)C(C)C,28.5%,20.6%,266%
C[C@H](CO)N1C[C@H](C)[C@@H](CN(C)Cc2ccncc2)Oc2c(NC(=O)CCCCCC(=O)Nc3ccccc3N)cccc2C1=O,12.5%,23.6%,190%
COc1ccc(CCc2nc(-c3ccc(-n4cccc4)cc3)no2)cc1,19.9%,32.2%,762%

SMILES,double positive events (at 7.7 µM),double positive events [1],percent response (vesicle binding) (at 7.7 µM)
Cc1ccc(C(C)C)c(OCC(=O)N2CCN(c3ncccn3)CC2)c1,9.8%,26.6%,314%
CC(Oc1ccccc1Cl)C(=O)N1CCCN(C)CC1 (stereo not drawn),18.8%,23.4%,470%
CC(=O)Nc1ccc(NC(=O)C(C)OC(=O)[C@@H]2CCCN2C(=O)c2cccs2)cc1 (stereo partly drawn),10.5%,23.1%,141%
CCOC(=O)c1ccc(NC(=O)CN2C(=O)NC3(CCCCCCC3)C2=O)cc1,18.9%,5.3%,185%
C=CC[C@@H](CC(=O)NCCO)C(=O)N[C@@H](COC(=O)[C@@H](CC=C)Cc1ccc(F)cc1)Cc1ccccc1,38.5%,33.5%,228%
Cc1ccc(C)c(S(=O)(=O)N2CCCC2CNC(=O)C(=O)NCCc2ccco2)c1 (stereo not drawn),9.6%,5.9%,406%
O=C(Cc1ccc2c(c1)OCCO2)Nc1cccc(S(=O)(=O)N2CCOCC2)c1,13.8%,28.5%,427%
CC(=O)c1csc(-c2cccc(-c3nc4ccc(Cl)cn4c3NC3CCCCC3)c2)c1,29.6%,13.2%,498%
Cc1nc2c(cc1C(=O)N/N=C/c1ccc(O)c(O)c1)c(=O)n(C)c(=O)n2C,43.3%,17.8%,254%
C(=N\N=C\c1cccnc1)/c1cccnc1,23.8%,6.4%,185%
NC(=O)CSc1nnc2sc3ccccc3n12,13.5%,17.2%,174%
COc1cccc(/C=C2\SC(=O)N(CCC(=O)NNC(=O)c3ccccc3Cl)C2=O)c1,17%,27%,164%
COC(=O)CN(n1cnnc1)S(=O)(=O)c1ccccc1Cl,32.1%,9.6%,359%
CSc1cccc(NC(=O)CCCn2c(=O)c3cccn3c3cccnc32)c1,26.3%,3%,210%
COc1ccc(CC(=O)OCC(=O)N2CCN(S(=O)(=O)c3ccc(C)cc3C)CC2)cc1,6.8%,6.3%,92%
Cc1cs/c(=N\N=C\c2cccc([N+](=O)[O-])c2)n1Cc1ccco1,7.5%,24.4%,232%
CCCCOc1ccc(CC(=O)NCC(=O)O)cc1,12.7%,14.2%,385%
Cc1nc2ccccc2cc1C(=O)N/N=C/c1cccs1,23.9%,7.9%,181%
CCN(C(=S)Nc1ccccc1F)C1CCCCC1,37.6%,29.9%,217%
CCn1c(Cc2ccc(OC)cc2)nnc1SCC(=O)NC1CC1,26.7%,12%,216%
CC(OC(=O)c1ccc(-n2cnnn2)cc1)C(=O)Nc1ccccc1F (stereo not drawn),11.2%,16.8%,409%

SMILES,double positive events (at 7.7 µM),double positive events [1],percent response (vesicle binding) (at 7.7 µM)
Nn1c(Cc2ccccc2F)nnc1SCC(=O)Nc1cccc(S(=O)(=O)NC2=NCCCCC2)c1,16.1%,13.7%,154%
Cc1cccc(C)c1NC(=O)CNC(=O)C(C)NC(C)c1ccccc1Br (stereo not drawn),30.2%,15.3%,306%
COc1ccc(NC(=O)[C@@H](NC(=O)c2ccccc2F)C(C)C)cc1S(=O)(=O)N1CCOCC1,6.1%,13.1%,219%
CCOc1ccc2nnc(-c3ccc(Br)cc3)n2n1,19.8%,10.7%,583%
C=CCNC(=O)c1ccc(-c2ccc([N+](=O)[O-])cc2)o1,12.1%,18%,431%
COc1ccc(C(=S)NCS(=O)(=O)c2ccc(C)cc2)cc1,32.6%,27.7%,519%
Cc1[nH]c2ccccc2c1C(=O)CN1C(=O)C(=O)N(CCC2=CCCCC2)C1=O,13.9%,28%,387%
O=C1CN(C(=O)c2ccc(F)cc2)c2ccccc2N1,16.8%,25.6%,222%
CC(NCc1ccccc1Cl)C(=O)Nc1ccc(S(=O)(=O)N2CCCC2)cc1 (stereo not drawn),28.7%,20.6%,186%
CCNC(=S)Nc1ccc(Cl)cc1Cl,22.7%,16.3%,349%
C/C(=N/NC(=O)c1cccc(C)c1)c1c(O)cc(C)oc1=O,32.1%,11.8%,365%
CCCCC(CC(O)COCCC)C(=O)NN (stereo not drawn),31.4%,6.8%,127%
C/C=C(/C)C(=O)O[C@@H]1[C@H](OC(C)=O)c2c(ccc3ccc(=O)oc23)OC1(C)C,23.2%,13.6%,234%
CCOc1ccc(C(=O)NNC(=O)CN2C(=O)C3CC=CCC3C2=O)cc1OC (stereo not drawn),24.7%,32.8%,243%
CCOc1ccc(NC(=O)CN(C)C(=O)C2CC(=O)N(Cc3ccco3)C2)cc1OCC (stereo not drawn),9%,22.3%,342%
O=C(CCN1CCOCC1)c1ccc(N2CCCCC2)cc1,30.8%,13.8%,233%
COc1ccc(/C=N\NC(=O)c2ccccc2OC)cc1COc1c(F)c(F)c(F)c(F)c1F,18.6%,42.2%,239%
O=C(Cc1cccs1)NNC(=O)c1ccc(F)cc1,18.8%,23.6%,206%
COc1cc(C)c(NC(=O)COc2cccc3c2OC(C)(C)C3)cc1OC,47%,19.2%,278%
Nc1ccc(-c2nnc(-c3ccccc3)o2)cc1,14.9%,32%,112%
COc1cccc(OC)c1C(=O)Nc1cccc(C(C)=O)c1,37.1%,12.7%,327%

SMILES,double positive events (at 7.7 µM),double positive events [1],percent response (vesicle binding) (at 7.7 µM)
COC1CCN(Cc2cn(Cc3ccccc3)nc2-c2cc3ccccc3o2)CC1,9.5%,18.9%,144%
CCC[C@@H]1Cc2ccccc2N1C(C)=O,27.5%,5%,271%
CC1CCCN(S(=O)(=O)c2ccc(C(=O)Nc3ccccc3-c3nc4ccccc4[nH]3)cc2)C1 (stereo not drawn),11.7%,11.5%,202%
CN1C(=S)SC(/[N+]([O-])=C\c2ccccc2F)C1(C)C (stereo not drawn),22%,26.9%,620%
CN(C1=C(NC(=O)c2ccc(Cl)cc2)C(=O)c2ccccc2C1=O)c1ccccc1,15.4%,28.8%,682%
c1ccc(Oc2cccc(CN3CCCCC3)c2)cc1,25.4%,26.1%,485%
O=C(CN1C(=O)c2ccc([N+](=O)[O-])cc2C1=O)Nc1nnc(C2CC2)s1,37.1%,12.6%,756%
COC(=O)c1ccc(/C=N/Nc2nc(C)c(C)s2)cc1,12.6%,30.9%,147%
O=C(c1ccc(COc2c(F)c(F)cc(F)c2F)o1)N1CCN(c2ccccc2)CC1,16.7%,23.8%,234%
CCNc1nc(NCC)nc(N(n2cnnc2)S(=O)(=O)c2ccc(C)cc2)n1,14.5%,19.9%,178%
COc1ccc(-n2nc([N+](=O)[O-])c(=NCc3cccnc3)n2O)cc1,18.9%,19.6%,170%
CCOc1ccc(C(=O)Nc2nnc(C3=COCCO3)o2)cc1,13.3%,17.3%,504%
Cc1ccccc1C(C(=O)NC1CCCCC1)N(C(=O)c1ccccn1)c1cccnc1 (stereo not drawn),9.1%,30.8%,87.5%
CON(C)C(=O)/C=C/CCCCNC(=O)OC(C)(C)C,25%,18.7%,188%
Cc1c(C(=O)NCCN2C(=O)S/C(=C\c3cccnc3)C2=O)cccc1[N+](=O)[O-],18.3%,20.5%,735%
COCCn1nnnc1C(c1cc2ccc(OC)cc2[nH]c1=O)N1CCc2ccccc2C1 (stereo not drawn),33.1%,19.3%,359%
O=C(NNC(=O)c1ccc(Cl)nc1)c1ccc(Br)cc1,38.1%,29.1%,306%
Cc1cc(S(=O)(=O)N2CCN(Cc3ccccc3)CC2)c(C)s1,18.4%,28.3%,258%

# In the list so far, these have an aryl thioether with sulfur outside any ring.
SMILES,double positive events (at 7.7 µM),double positive events [1],percent response (vesicle binding) (at 7.7 µM)
NC(=O)CSc1nnc2sc3ccccc3n12,13.5%,17.2%,174%
CSc1cccc(NC(=O)CCCn2c(=O)c3cccn3c3cccnc32)c1,26.3%,3%,210%
CCn1c(Cc2ccc(OC)cc2)nnc1SCC(=O)NC1CC1,26.7%,12%,216%
Nn1c(Cc2ccccc2F)nnc1SCC(=O)Nc1cccc(S(=O)(=O)NC2=NCCCCC2)c1,16.1%,13.7%,154%
